Measurements taken from PubChem BioAssay AID1246 (Columbia University Molecular Screening Center, 2008).
The entries are a selection whose mix differs from that of the whole data set. Active and inactive are the calls of the source.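 How the source made its calls: active means inhibition above the batch mean plus 3 SD, and confirmed as a hit on visual image review (cut at about 43% in these data); inconclusive means passes the inhibition cutoff but fails visual image review; inactive means the rest.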

test: E-selectin induction blockers in HUVEC – imaging, immunofluorescence, high content, primary screen (AID 1246); settings: HUVEC TNFa-induced E-selectin immunofluorescence, at 2 µM, hits give high values;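 further: 0% = TNF-stimulated DMSO wells and 100% = unstimulated control wells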

SMILES	inhibition
CN[C@H]1C[C@H]2O[C@@](C)([C@H]1OC)n1c3ccccc3c3c4c(c5c6ccccc6n2c5c31)C(=O)NC4	active: 98.7%
